The nature of this assay: qHTS Assay to Find Inhibitors of Chronic Active B-Cell Receptor Signaling. The conditions noted are these: ABC-DLBCL IkBa-CBG/CBR reporter, luminescence ratio (green luciferase fused to IkBa over red control in TMD8 lymphoma cells), 4 h. A digest of the protocol:
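TMD8 ABC-DLBCL cells carrying doxycycline-inducible green luciferase fused to IkappaBalpha plus unfused red luciferase were exposed to compounds (up to 46 uM) for 4 hrs at 37C. Activity came from the overlap-corrected green/red luminescence ratio.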

Setting [1] is: measured here: CBR red luminescence, cell number.
[2] abbreviates: measured here: IkBa-CBG green luminescence.

The list shows a part of the results. Shown are side measurements of this screen, not its main read-out; they come without a call. Compounds called inactive in the main read-out are mostly missing here. Potencies come from curve fits of mixed quality, noted in brackets.

A word on the AC50: it is the concentration giving half of the maximal activity seen. Take `Cc1ccc(C(=O)C2CN3CCC2CC3)cc1` (configuration not stated): the AC50 under setting [1] is 18.4 µM [rising, single point].

Take `CCN(CC)Cc1c[nH]c2ccccc12`: the AC50 under setting [1] was 7.08 µM [falling, full curve, poor fit]. On to `CNC(=O)Oc1cccc(-c2cn3cc(Cl)ccc3n2)c1`, for which the AC50 under setting [1] was 18.4 µM [falling, single point]. On to `Nc1c(C(=O)NCC2CCCO2)c2nc3ccccc3nc2n1Cc1ccco1` (configuration not stated), for which the AC50 reads like this: under setting [1], 0.501 µM [falling, full curve, poor fit]; under setting [2], 0.141 µM [rising, full curve, poor fit]. For `CCOc1ccc(C(C)=O)cc1Cn1c(=O)oc2ccccc21`, under setting [1], the AC50 is 10 µM [falling, partial curve]. Turning to `CC(=O)Cc1c[nH]c2ccccc12`, the concentration at half-maximal activity (AC50) under setting [1] is 35.5 µM [rising, single point] and the AC50 under setting [2] is 20 µM [falling, partial curve, poor fit].

Consider `CCN1CCN(c2cc(N3CCCC3)c(F)cc2[N+](=O)[O-])CC1`, for which the AC50 under setting [1] was 18.4 µM [falling, single point]. For the molecule `Nc1ccc2nc(-c3ccccc3)[nH]c2c1`, the AC50 under setting [1] was 3.16 µM [falling, full curve, poor fit]. Still for that read-out and setting: for `Cc1cc(C)c2c(N)c(C(=O)N/N=C/c3ccccc3)sc2n1` the value was 1.12 µM [rising, full curve]. In the case of `CN1CCN(c2ccc(/C=C3\C(=O)NC(=S)N(c4cccc(Br)c4)C3=O)o2)CC1`, under setting [1], the AC50 was 6.51 µM [rising, partial curve]. Consider `O=C(N/N=C/c1c(O)n(Cc2ccc(F)cc2)c(=O)[nH]c1=O)c1ccccc1O`, for which the AC50 under setting [1] was 7.31 µM [falling, partial curve].

For `C=CCn1c(O)c(/C=C2\C=Nc3ccccc32)c(=O)[nH]c1=O`, under setting [1], the AC50 is 2.24 µM [falling, partial curve, poor fit]. Same read-out and setting: the value for `O=c1c2ccccc2ncn1-c1ccc([N+](=O)[O-])c(C(F)(F)F)c1` was 9.2 µM [rising, partial curve]; that for `CC/C(CC(c1ccccc1)c1c(O)c2ccccc2oc1=O)=N\NC(N)=S` (configuration not stated) was 7.31 µM [falling, partial curve, poor fit]. The same measure, in the same setting: the value for `O=C(NCc1ccccc1)c1cccn(Cc2ccccc2)c1=O` was 1.26 µM [rising, full curve, poor fit]; that for `O=P1(O)C=C(c2ccccc2)NC(c2ccccc2)=C1` was 0.184 µM [rising, full curve, poor fit]. `Cc1cccc(Cn2cc(C=O)c3ccccc32)c1`: under setting [1], the AC50 is 5.62 µM [rising, single point]. For `CCOc1ccc(CN2CCCC(C(=O)c3ccccc3OC)C2)cc1` (configuration not stated), the AC50 under setting [1] was 25.1 µM [falling, single point]. Still for that read-out and setting: for `COC(=O)C1=C(c2ccc(-c3ccccc3)c(F)c2)C[C@@H]2CC[C@H]1N2C(=O)NCCc1ccccc1` the value was 2.59 µM [falling, full curve]; for `COc1ccc(-n2c(O)c(/C=C3\C=Nc4ccc(Br)cc43)c(=O)[nH]c2=O)cc1`, 35.5 µM [rising, single point]. The same measure, in the same setting: for `O=c1[nH]c(=O)n(-c2cccc3ccccc23)c(O)c1/C=N/N1CCCCCC1` the value was 8.91 µM [falling, partial curve, poor fit]; for `O=c1[nH]c(O)c(C=Nc2ccccc2Oc2ccccc2)c(=O)[nH]1`, 0.1 µM [rising, full curve, poor fit].

For the molecule `COc1ccc(N2CCN(C(=O)CSc3nnc(-c4cc5ccccc5cc4O)n3C)CC2)cc1`, the AC50 under setting [1] is 25.1 µM [falling, partial curve, poor fit]. Same read-out and setting: for `C[N+](C)(C)CCCCCCCCCC[N+](C)(C)C` the value was 8.91 µM [rising, partial curve, poor fit]; for `O=C(NCc1ccccc1)C1CCN(c2nc(-c3ccccc3)nc3c2CCC3)CC1`, 10 µM [falling, partial curve, poor fit]; for `Cc1cccc(Cn2cc(/C=C/[N+](=O)[O-])c3ccccc32)c1`, 35.5 µM [rising, single point]. Consider `CCOC(=O)c1c(NC(=O)CCl)sc(CN(C)C)c1-c1ccccc1`, for which the AC50 under setting [1] is 35.5 µM [falling, single point]. Same read-out and setting: the value for `CN(C)C(=O)Oc1ccc2c(c1)O/C(=C\c1ccc(Cl)cc1)C2=O` was 20 µM [rising, single point]. As for `C[C@H](O)[C@H]1CC[C@H]2[C@@H]3CCC4=CC(=O)CC[C@]4(C)[C@H]3CC[C@]12C`, under setting [2], the AC50 is 20.6 µM [falling, single point]. Regarding `COC(=O)C1=C(c2c(C)noc2C)C[C@@H]2CC[C@H]1N2C(=O)N1CCCC1`, under setting [1], the AC50 was 3.66 µM [rising, single point].

Regarding `CCCCc1cc(O)c(CCCC)c(O)c1`, the AC50 under setting [1] was 17.8 µM [falling, single point]. Same read-out and setting: the value for `O=C(c1cccs1)C1CN2CCC1CC2` (configuration not stated) was 32.6 µM [rising, single point]; that for `CCC1Cc2c(nc(N)c3c(N)nc(N4CCCCC4)c(C#N)c23)O1` (configuration not stated) was 12.6 µM [falling, partial curve, poor fit]. Regarding `CCCOP(=O)(OCCC)c1nc(-c2ccccc2)oc1NCc1ccccc1`, under setting [1], the AC50 was 25.9 µM [falling, single point].

On to `Nc1ccc2cc(Br)ccc2c1`, for which, under setting [1], the AC50 is 2.82 µM [rising, full curve]. Same read-out and setting: for `NP(=O)(OCCCc1ccccc1)Oc1ccccc1` (configuration not stated) the value was 0.316 µM [rising, full curve, poor fit]. For `CCCC/C(C)=C/[C@@H](NP(=O)(c1ccccc1)c1ccccc1)c1ccccc1`, the AC50 is 18.4 µM [falling, single point] under setting [1] and 25.9 µM [rising, single point] under setting [2].

As for `Cn1c(O)c(Cc2ccc(OCc3ccccc3)cc2)c(=O)n(C)c1=O`, the AC50 under setting [1] is 6.31 µM [rising, partial curve]. Same read-out and setting: for `COc1ccc(C(C)(C)C)cc1NC(=O)CCCn1c(=O)oc2ccccc21` the value was 6.51 µM [rising, single point]; for `Nc1c(C(=O)NCCN2CCOCC2)c2nc3ccccc3nc2n1Cc1ccco1`, 12.6 µM [falling, single point]. The same measure, in the same setting: the value for `C=C1C(=O)O[C@@H]2C[C@@H](C)[C@@H]3C=CC(=O)[C@@]3(C)[C@@H](O)[C@H]12` was 0.891 µM [falling, full curve]. Consider `COc1cc([C@@H]2c3cc4c(cc3[C@@H](OC)[C@H]3COC(=O)[C@H]23)OCO4)cc(OC)c1O`, for which the AC50 by setting is: under setting [1], 11.2 µM [rising, partial curve]; under setting [2], 15.8 µM [falling, single point]. As to `O=C(Cn1c(=O)oc2ccccc21)Nc1ccccc1N1CCOCC1`, the AC50 under setting [1] was 14.1 µM [falling, single point].

For the molecule `O=c1[nH]c(=S)n(C2CC2)c(O)c1/C=N/Nc1ccccc1`, the AC50 under setting [1] was 6.51 µM [falling, partial curve]. The same measure, in the same setting: the value for `O=C(CCCOc1ccc(Cl)cc1Cl)N1CCC2(CC1)OCCO2` was 7.31 µM [falling, single point]; that for `CCOc1ccc(-c2cc(C)[n+](CCO)c(-c3ccc(OCC)cc3)c2)cc1` was 15.8 µM [falling, partial curve, poor fit]; that for `CN1CCN(c2ccc(C(F)(F)F)cc2N)CC1` was 35.5 µM [rising, single point]. On to `COc1ccc(/C=N/NC(=O)c2[nH]c3ccc(C)cc3c2-c2ccccc2)c(C(=O)O)c1OC`, for which, under setting [1], the AC50 is 11.2 µM [rising, partial curve]. On the same count and under the same terms, for `Oc1ccc(Cl)cc1CN1CCN(Cc2ccccc2)CC1` the value was 0.461 µM [falling, partial curve, poor fit]. On the same count and under the same terms, the value for `COc1cccc(-n2c(-c3ccoc3)nc3ccccc3c2=O)c1` was 6.51 µM [rising, partial curve, poor fit]; that for `O=C(c1cccc([N+](=O)[O-])c1)c1ccc2[nH]c(=O)[nH]c2c1` was 5.01 µM [rising, partial curve, poor fit]. Regarding `CCC(=NCc1ccc2c(c1)OCO2)c1c(O)n(C2CCCCC2)c(=O)[nH]c1=O`, under setting [1], the AC50 was 29.1 µM [falling, single point]. Still for that read-out and setting: for `O=c1c2ccccc2nc(/C=C/c2ccccc2O)n1-c1ccccc1O` the value was 15.8 µM [falling, partial curve, poor fit]. `CNC(=O)c1cccn(Cc2ccc(C(F)(F)F)cc2)c1=O`: the AC50 under setting [1] is 8.91 µM [rising, partial curve]. On to `BrCC1C[n+]2c(SCc3ccccc3)nc3sc4c(c3c2O1)CCCC4` (configuration not stated), for which the AC50 under setting [1] is 35.5 µM [rising, single point]. Regarding `O=C1NC(=O)N(c2cccc(F)c2)C(=O)/C1=C/c1ccc(N2CCOCC2)cc1`, the AC50 under setting [1] was 7.08 µM [falling, full curve].

Consider `CCOC(=O)Cn1c(=O)oc2cc(S(=O)(=O)N(C)c3ccc(OC)cc3)ccc21`, for which, under setting [1], the AC50 is 10 µM [rising, single point]. Same read-out and setting: for `COC(=O)C1=C(c2ccc(OC(F)(F)F)cc2)C[C@@H]2CC[C@H]1N2C(=O)NCCOc1ccccc1` the value was 29.1 µM [falling, single point]; for `CCCC(CCC)C(=O)OC[N+](C)(C)CCOC(=O)C(O)(c1ccccc1)C1CCCC1` (configuration not stated), 31.6 µM [falling, single point]; for `CN(Cc1ccccc1)C1CCCN(C(=O)COc2ccccc2Cl)C1` (configuration not stated), 35.5 µM [falling, single point].

In the case of `O=C(NCC(O)c1ccccc1)Nc1cccs1` (configuration not stated), the AC50 under setting [1] is 11.2 µM [falling, partial curve]. In the case of `O=[N+]([O-])c1ccc(Cl)c(Cl)c1Cl`, the AC50 under setting [1] is 2.91 µM [rising, full curve, poor fit]. As to `Cc1cc(N2CCN(S(=O)(=O)c3ccc(Cl)c(Cl)c3)CC2)c2ccccc2n1`, under setting [1], the AC50 was 25.1 µM [falling, single point].

The values above are taken from PubChem BioAssay AID493014 (National Center for Advancing Translational Sciences (NCATS), 2011).
